Laboratory results: PubChem BioAssay AID1259424 (University of Nebraska Medical Center, 2018)

- Purpose: 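Seek colon cancer survival genes behaving like KSR1, using a six-gene signature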 (primary screen)
- Cell system: human HCT116 colon cancer cells
- Reagent: siRNA pool against human genes, 50 nM
- Measured: 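Six signature mRNAs by branched-DNA multiplex assay, scaled to two housekeeping genes and non-targeting median, log2; matched to mean KSR1 knockdown profile by Pearson correlation and euclidean distance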
- Scale: mean correlation with KSR1 profile: higher = expression change more like KSR1 knockdown
Here is an unselected part of about 14,000 reagents. 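Higher correlation or smaller distance means closer resemblance to KSR1 loss; control wells, including KSR1 knockdowns, recur on many plates.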 Further read-outs or replicates are left out here. No sequences are given here. Not given: the time to read-out.

S100P (S100 calcium binding protein P) | mean correlation with KSR1 profile: 0.231
HEATR6 (HEAT repeat containing 6) | mean correlation with KSR1 profile: 0.148
SCML1 (Scm polycomb group protein like 1) | mean correlation with KSR1 profile: -0.204
GET4 (guided entry of tail-anchored proteins factor 4) | mean correlation with KSR1 profile: 0.285
CYTL1 (cytokine like 1) | mean correlation with KSR1 profile: -0.000941
UACA | mean correlation with KSR1 profile: -0.659
HYAL4 (hyaluronidase 4) | mean correlation with KSR1 profile: -0.445
FAR2 (fatty acyl-CoA reductase 2) | mean correlation with KSR1 profile: -0.029
WDR75 (WD repeat domain 75) | mean correlation with KSR1 profile: 0.376
NME6 (NME/NM23 nucleoside diphosphate kinase 6) | mean correlation with KSR1 profile: 0.0966
MINDY2 (MINDY lysine 48 deubiquitinase 2) | mean correlation with KSR1 profile: -0.713
ARHGEF39 (Rho guanine nucleotide exchange factor 39) | mean correlation with KSR1 profile: -0.317

Entries listed so far whose target name begins with H or h (2):
HEATR6 (HEAT repeat containing 6) | mean correlation with KSR1 profile: 0.148
HYAL4 (hyaluronidase 4) | mean correlation with KSR1 profile: -0.445
